# Results reported in publication PMC7819943, “Rice protein-binding microarrays: a tool to detect cis-acting elements near promoter regions in rice”.
# The list shows a part of the results.
# Target: T1, OsSMF1 (Oryza sativa, UniProt Q6ZLB0 1-436)
# T1 sequence: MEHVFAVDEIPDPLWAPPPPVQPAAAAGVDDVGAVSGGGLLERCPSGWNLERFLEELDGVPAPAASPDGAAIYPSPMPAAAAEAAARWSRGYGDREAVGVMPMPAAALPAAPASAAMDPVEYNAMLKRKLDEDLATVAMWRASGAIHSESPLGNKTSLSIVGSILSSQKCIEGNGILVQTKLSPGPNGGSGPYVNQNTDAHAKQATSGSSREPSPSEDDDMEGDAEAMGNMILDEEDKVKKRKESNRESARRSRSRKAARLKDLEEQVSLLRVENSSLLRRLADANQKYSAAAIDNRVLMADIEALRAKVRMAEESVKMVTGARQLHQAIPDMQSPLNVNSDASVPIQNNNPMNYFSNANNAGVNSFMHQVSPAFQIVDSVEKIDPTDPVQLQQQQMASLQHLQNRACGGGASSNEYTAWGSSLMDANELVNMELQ
# Experiment: protein-binding microarray (RPBM); PBS, 2% BSA, 51.3 ng/ul salmon testes DNA, 50 uM zinc acetate, 200 nM TF, 25 C, 1 h; high values mean tight binding
# Settings: protein: recombinant; tags: N-terminal polyhistidine and DsRed monomer fusion (pET32a); chain copies: 2; label: CyDye5-dUTP incorporated in the synthesized complementary strand; 3' TTTTT single-stranded linker to array surface; dsDNA, one strand shown
# How it was run: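 Ni–NTA purification followed expression in E. coli BL21-CodonPlus of transcription factors fused N-terminally to a polyhistidine tag and DsRed. At 200 nM in PBS with 2% BSA, salmon testes DNA and 50 µM zinc acetate, the protein was incubated for 1 h at 25 °C with a custom Agilent array that had been primer-extended with Cy5-dUTP and blocked with 2% BSA. After washing, the array was read on an Axon 4000B scanner. The binding signal is per-feature fluorescence intensity in arbitrary units.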
row,Sequence,binding signal
1,TGGTTCTATTTGCTTGTCAACCTTTATGATCTTGCGTTATCGGAGTCACCTAGTGCAG,3380 fluorescence intensity (a.u.)
2,TAGCGCATCATCATCATCGGTGTGTCGTGACTTGCGTTCGCGGAGTCACCTAGTGCAG,5120 fluorescence intensity (a.u.)
3,GCTACTTTGCGCTCGCGTCGGCGTCGGCTTCTGTCTCCGACGGAGTCACCTAGTGCAG,4070 fluorescence intensity (a.u.)
4,AGCGGAAGTCATTGACGATGTCGGTGGTCATGCTATGTCCCGGAGTCACCTAGTGCAG,17600 fluorescence intensity (a.u.)
5,TATCAAATTTATCCATTTGTTAATGTTGTAATAATTAAAACGGAGTCACCTAGTGCAG,35100 fluorescence intensity (a.u.)
6,GTTTATTCCAAGTGGTGGATGCTGATGAATTAAGTATATACGGAGTCACCTAGTGCAG,3140 fluorescence intensity (a.u.)
7,ACCAGCGCCCGCGCGCGCGCGCGAGTACGTGTTGTCGAGACGGAGTCACCTAGTGCAG,3200 fluorescence intensity (a.u.)
8,CAGCTGCGGGCAACGGTGCCTTGGCGTCACGCATCCGCCGCGGAGTCACCTAGTGCAG,3610 fluorescence intensity (a.u.)
9,GGGGAAATTTTCACGAGGGAGAGGGAGGGGAGGGATATTTCGGAGTCACCTAGTGCAG,4860 fluorescence intensity (a.u.)
10,GCGCCAAGCCGGCCTCCATCTCCGCCGCCCGCGCCTCTCGCGGAGTCACCTAGTGCAG,3370 fluorescence intensity (a.u.)
11,TCACCCCTGAGAAAGACACGTCTTTCTGGTTTAATCCATTCGGAGTCACCTAGTGCAG,3620 fluorescence intensity (a.u.)
12,ACGGCAAAGCCCATTAGTCGGACTGGCCTCCAGGGGAGGGCGGAGTCACCTAGTGCAG,3670 fluorescence intensity (a.u.)
13,GAGGGAGTACTGCACTATGACTAATATGTTGATCGGTTCTCGGAGTCACCTAGTGCAG,3270 fluorescence intensity (a.u.)
14,GGAGACCGCGGAGTGATGACTGGTGAGGCGGCGATGTCCACGGAGTCACCTAGTGCAG,3310 fluorescence intensity (a.u.)
15,CTCTCCGAGTCACTCTCCACCGATCCCAGGGTTCTTCTACCGGAGTCACCTAGTGCAG,3950 fluorescence intensity (a.u.)
16,GGAAGGGAGAGAAGAGGGGTGCTGACGTGGACACCCTGACCGGAGTCACCTAGTGCAG,23400 fluorescence intensity (a.u.)
17,AACGGCCAAGTCCCACCTCAGCGCCAGGTGGGCTGGCGCTCGGAGTCACCTAGTGCAG,4320 fluorescence intensity (a.u.)
18,CTGCAATTTTGTAAGAAATGAGTTGTAATGTTGTTTCCTGCGGAGTCACCTAGTGCAG,4120 fluorescence intensity (a.u.)
19,CAGTTGATGATACACGTGTACGCACTAGTGTGACTTGCAACGGAGTCACCTAGTGCAG,8950 fluorescence intensity (a.u.)
20,AGAAGTACGGAGTAGAAATACTACCTGTCACTGCTAAGTGCGGAGTCACCTAGTGCAG,3390 fluorescence intensity (a.u.)
21,AATCACCAAAACTTTCCTGTCGGTCATCAATCTCATCAGCCGGAGTCACCTAGTGCAG,3440 fluorescence intensity (a.u.)

# Single values from the results shown.
# Value for GTTTATTCCAAGTGGTGGATGCTGATGAATTAAGTATATACGGAGTCACCTAGTGCAG under binding signal: 3140 fluorescence intensity (a.u.)
# Value for TAGCGCATCATCATCATCGGTGTGTCGTGACTTGCGTTCGCGGAGTCACCTAGTGCAG under binding signal: 5120 fluorescence intensity (a.u.)

# Continued:

row,Sequence,binding signal
1,TGTTATTTTACTCATGCTTGCTGATGTAACCTCAGTTATCCGGAGTCACCTAGTGCAG,4660 fluorescence intensity (a.u.)
2,TACTCACTCCTGCACGTCGGGTAAATTACAGCTAAATATACGGAGTCACCTAGTGCAG,13100 fluorescence intensity (a.u.)
3,TTTGAACATTTCGACGTGACTCGATATCAATTTCCGAGAGCGGAGTCACCTAGTGCAG,3400 fluorescence intensity (a.u.)
4,TAATTTGATGGATTATTGTCACTGACATCATCACCAGCACCGGAGTCACCTAGTGCAG,5860 fluorescence intensity (a.u.)
5,CTTCTCCAAGGGACCAGGAAACTGACGCTACAGCTTTGCCCGGAGTCACCTAGTGCAG,3900 fluorescence intensity (a.u.)
6,TTTTGGGCTTGCTCGTATCCTTGCCAAGTCTGGTGAGTCGCGGAGTCACCTAGTGCAG,3950 fluorescence intensity (a.u.)
7,CCCATAACTGAATTGTTAATTTTGTCACGCGAGCAACGCACGGAGTCACCTAGTGCAG,19300 fluorescence intensity (a.u.)
8,GTGATGACGTGGCACGCTGACATGTGGGGTCCCACGTGCCCGGAGTCACCTAGTGCAG,19000 fluorescence intensity (a.u.)
9,CCTTGCAATCGATGTAATGCGGTGACGTGGCACACAGTAGCGGAGTCACCTAGTGCAG,25500 fluorescence intensity (a.u.)
10,CGGATTTAGTATGTTTTACGTGGCAAAATGGTCTCCTAGACGGAGTCACCTAGTGCAG,5470 fluorescence intensity (a.u.)
11,GCGCCTTGCCTGGCGAGGTTGCGGTGTCCGACAGCGAGTCCGGAGTCACCTAGTGCAG,3890 fluorescence intensity (a.u.)
12,CCTCAACCGTGACTCAGTTATTCAGTTCGACACCCAGCCGCGGAGTCACCTAGTGCAG,7330 fluorescence intensity (a.u.)
13,CCTCTCGTCGCCGACGTGGACTCACCCGACGCCGCGAGCCCGGAGTCACCTAGTGCAG,9630 fluorescence intensity (a.u.)
14,AATTTCTGTTGCACCATGACGTGGAAAGTAAGTGTATGTGCGGAGTCACCTAGTGCAG,22200 fluorescence intensity (a.u.)
15,TAATTCAATTTGCTGCTGACTATTAGCCCTTGTCTGCAAGCGGAGTCACCTAGTGCAG,4450 fluorescence intensity (a.u.)
16,GTGGGAGGGAGGGCGGCGAGCTGCGCGGCGAACCTCGAGCCGGAGTCACCTAGTGCAG,3830 fluorescence intensity (a.u.)
17,TCCGGAGGGGTGACGTGGCGCGAGGAGATCGGCGTGGCATCGGAGTCACCTAGTGCAG,23500 fluorescence intensity (a.u.)
18,ACTGCAGATTTGCAGAGTAGCAAGCACCACATGACTCACACGGAGTCACCTAGTGCAG,7060 fluorescence intensity (a.u.)
19,AGTTCTAGCAAAATTCTTGTTTGGCATGGCTCCACGTCTGCGGAGTCACCTAGTGCAG,5430 fluorescence intensity (a.u.)
20,TTGTTAGTGGGGTCCTCCGCGTCGCTCTCGCGCGTGCGGCCGGAGTCACCTAGTGCAG,3330 fluorescence intensity (a.u.)
21,ACAGACAGCCTTCACGTCGTCTACACGTCGACGCCTCAGCCGGAGTCACCTAGTGCAG,8550 fluorescence intensity (a.u.)
